{"sequences": {"note": "Amino acid sequences for entries named in this document (tags omitted). Residues count along the entry.", "UniProt P06213, residues 28-1382": "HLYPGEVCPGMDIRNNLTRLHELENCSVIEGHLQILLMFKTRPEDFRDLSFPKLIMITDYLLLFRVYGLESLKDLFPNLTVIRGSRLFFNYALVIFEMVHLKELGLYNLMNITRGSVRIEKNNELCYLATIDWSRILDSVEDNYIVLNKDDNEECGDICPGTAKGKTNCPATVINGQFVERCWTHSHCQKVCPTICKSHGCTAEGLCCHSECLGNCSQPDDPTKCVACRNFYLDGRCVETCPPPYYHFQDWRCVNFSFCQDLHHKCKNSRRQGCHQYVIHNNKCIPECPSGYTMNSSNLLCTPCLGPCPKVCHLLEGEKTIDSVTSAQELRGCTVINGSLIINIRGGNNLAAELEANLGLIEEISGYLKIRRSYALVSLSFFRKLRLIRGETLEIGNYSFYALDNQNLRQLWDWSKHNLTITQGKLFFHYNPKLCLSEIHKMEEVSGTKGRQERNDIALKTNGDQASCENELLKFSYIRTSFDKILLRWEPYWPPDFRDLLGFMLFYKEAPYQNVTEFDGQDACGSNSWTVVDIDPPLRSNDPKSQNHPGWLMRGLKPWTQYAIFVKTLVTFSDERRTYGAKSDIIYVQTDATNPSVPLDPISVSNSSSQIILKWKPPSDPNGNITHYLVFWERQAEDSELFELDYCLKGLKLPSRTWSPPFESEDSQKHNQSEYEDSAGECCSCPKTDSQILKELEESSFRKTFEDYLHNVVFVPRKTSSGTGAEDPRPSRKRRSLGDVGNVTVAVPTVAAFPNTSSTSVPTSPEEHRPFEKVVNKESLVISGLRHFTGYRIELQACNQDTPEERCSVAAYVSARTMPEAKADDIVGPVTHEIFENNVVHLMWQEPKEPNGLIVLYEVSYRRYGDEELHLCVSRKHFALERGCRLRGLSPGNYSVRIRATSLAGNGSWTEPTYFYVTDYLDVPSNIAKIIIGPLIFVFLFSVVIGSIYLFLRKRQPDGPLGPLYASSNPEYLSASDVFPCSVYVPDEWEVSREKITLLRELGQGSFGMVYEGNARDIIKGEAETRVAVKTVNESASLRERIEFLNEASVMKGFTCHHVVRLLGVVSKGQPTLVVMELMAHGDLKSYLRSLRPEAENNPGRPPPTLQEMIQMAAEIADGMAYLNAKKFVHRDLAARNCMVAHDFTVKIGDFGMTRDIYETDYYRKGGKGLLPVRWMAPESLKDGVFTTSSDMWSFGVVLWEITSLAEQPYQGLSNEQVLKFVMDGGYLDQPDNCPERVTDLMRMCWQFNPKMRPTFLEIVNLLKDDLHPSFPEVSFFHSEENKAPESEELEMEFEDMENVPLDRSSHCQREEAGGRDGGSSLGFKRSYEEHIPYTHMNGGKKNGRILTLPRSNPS"}, "source": "patent US20240101635A1", "about": "(AKSTON BIOSCIENCES, published 2024)", "binders": {"B1": {"name": "insulin-Fc fusion protein of SEQ ID NO: 116 (Fc fusion)", "chain": "FVNQHLCGSHLVEALALVCGERGFFYTDPAGGGPRRGIVEQCCASVCSLYQLEHYCGGGGAGGGGGEGPKCPVPEIPGAPSVFIFPPKPKDTLSISRTPEVTCLVVDLGPDDSNVQITWFVDNTEMHTAKTRPREEQFSSTYRVVSVLPILHQDWLKGKEFKCKVNSKSLPSAMERTISKAKGQPHEPQVYVLPPTQEELSENKVSVTCLIKGFHPPDIAVEWEITGQPEPENNYQTTPPQLDSDGTYFLYSRLSVDRSHWQRGNTYTCSVSHEALHSHHTQKSLTQSPG", "notes": "homodimer"}, "B2": {"name": "insulin-Fc fusion protein of SEQ ID NO: 114 (Fc fusion)", "chain": "FVNQHLCGSHLVEALALVCGERGFFYTDPAGGGPRRGIVEQCCASVCSLYQLEHYCGGGGAGGGGGEGPKCPVPEIPGAPSVFIFPPKPKDTLSISRTPEVTCLVVDLGPDDSNVQITWFVDNTEMHTAKTRPREEQFNSTYRVVSVLPILHQDWLKGKEFKCKVNSKSLPSAMERTISKAKGQPHEPQVYVLPPTQEELSENKVSVTCLIKGFHPPDIAVEWEITGQPEPENNYQTTPPQLDSDGTYFLYSRLSVDRSHWQRGNTYTCSVSHEALHSHHTQKSLTQSP", "notes": "homodimer"}, "B3": {"name": "insulin-Fc fusion protein of SEQ ID NO: 122 (Fc fusion)", "chain": "FVNQHLCGSHLVEALELVCGERGFHYGGGGGGSGGGGGIVEQCCTSTCSLDQLENYCGGGGGQGGGGQGGGGQGGGGGGEGPKCPVPEIPGAPSVFIFPPKPKDTLSISRTPEVTCLVVDLGPDDSNVQITWFVDNTEMHTAKTRPREEQFNSTYRVVSVLPILHQDWLKGKEFKCKVNSKSLPSAMERTISKAKGQPHEPQVYVLPPTQEELSENKVSVTCLIKGFHPPDIAVEWEITGQPEPENNYQTTPPQLDSDGTYFLYSRLSVDRSHWQRGNTYTCSVSHEALHSHHTQKSLTQSPG", "notes": "homodimer"}, "B4": {"name": "insulin-Fc fusion protein of SEQ ID NO: 68 (Fc fusion)", "chain": "FVNQHLCGSHLVQALYLVCGERGFFYTDPTGGGPRRGIVEQCCTSICSLYQLENYCGGGGAGGGGDCPKCPAPEMLGGPSVFIFPPKPKDTLLIARTPEVTCVVVDLDPEDPEVQISWFVDGKQMQTAKTQPREEQFSGTYRVVSVLPIGHQDWLKGKQFTCKVNNKALPSPIERTISKARGQAHQPSVYVLPPSREELSKNTVSLTCLIKDFFPPDIDVEWQSNGQQEPESKYRTTPPQLDEDGSYFLYSKLSVDKSRWQRGDTFICAVMHEALHNHYTQESLSHSPG"}, "B5": {"name": "insulin-Fc fusion protein of SEQ ID NO: 70 (Fc fusion)", "chain": "B4 chain with H10E, Q13E, Y16A"}, "B6": {"name": "insulin-Fc fusion protein of SEQ ID NO: 74 (Fc fusion)", "chain": "B4 chain with Q13E, Y16A, F25Y"}, "B7": {"name": "insulin-Fc fusion protein of SEQ ID NO: 80 (Fc fusion)", "chain": "FVNQHLCGSHLVEALALVCGERGFFYTDPTGGGGGGSGGGGGIVEQCCTSICSLYQLENYCGGGGAGGGGDCPKCPAPEMLGGPSVFIFPPKPKDTLLIARTPEVTCVVVDLDPEDPEVQISWFVDGKQMQTAKTQPREEQFSGTYRVVSVLPIGHQDWLKGKQFTCKVNNKALPSPIERTISKARGQAHQPSVYVLPPSREELSKNTVSLTCLIKDFFPPDIDVEWQSNGQQEPESKYRTTPPQLDEDGSYFLYSKLSVDKSRWQRGDTFICAVMHEALHNHYTQESLSHSPG"}, "B8": {"name": "insulin-Fc fusion protein of SEQ ID NO: 86 (Fc fusion)", "chain": "FVNQHLCGSHLVEALALVCGERGFFYTDPTGGGPRRGIVEQCCTSICSLYQLENYCGGGGGQGGGGQGGGGQGGGGGDCPKCPAPEMLGGPSVFIFPPKPKDTLLIARTPEVTCVVVDLDPEDPEVQISWFVDGKQMQTAKTQPREEQFSGTYRVVSVLPIGHQDWLKGKQFTCKVNNKALPSPIERTISKARGQAHQPSVYVLPPSREELSKNTVSLTCLIKDFFPPDIDVEWQSNGQQEPESKYRTTPPQLDEDGSYFLYSKLSVDKSRWQRGDTFICAVMHEALHNHYTQESLSHSPG"}, "B9": {"name": "insulin-Fc fusion protein of SEQ ID NO: 88 (Fc fusion)", "chain": "B4 chain with Q13E, Y16A, D28Q, P29G, T30G, P34G, R35G, R36G"}, "B10": {"name": "insulin-Fc fusion protein of SEQ ID NO: 84 (Fc fusion)", "chain": "B4 chain with Q13E, Y16A, D28P, P29G, T30G, P34G, R35G, R36G"}, "B11": {"name": "insulin-Fc fusion protein of SEQ ID NO: 92 (Fc fusion)", "chain": "FVNQHLCGSHLVEALELVCGERGFHYGGGGGGSGGGGGIVEQCCTSTCSLDQLENYCNHGGGGQGGGGQGGGGQGGGGGDCPKCPAPEMLGGPSVFIFPPKPKDTLLIARTPEVTCVVVDLDPEDPEVQISWFVDGKQMQTAKTQPREEQFNGTYRVVSVLPIGHQDWLKGKQFTCKVNNKALPSPIERTISKARGQAHQPSVYVLPPSREELSKNTVSLTCLIKDFFPPDIDVEWQSNGQQEPESKYRTTPPQLDEDGSYFLYSKLSVDKSRWQRGDTFICAVMHEALHNHYTQESLSHSPG"}, "B12": {"name": "insulin-Fc fusion protein of SEQ ID NO: 34 (Fc fusion)", "chain": "B11 chain with H59G"}, "B13": {"name": "insulin-Fc fusion protein of SEQ ID NO: 32 (Fc fusion)", "chain": "FVNQHLCGSHLVEALELVCGERGFHYGGGGGGSGGGGGIVEQCCTSTCSLDQLENYCGGGGGQGGGGQGGGGQGGGGGDCPKCPAPEMLGGPSVFIFPPKPKDTLLIARTPEVTCVVVDLDPEDPEVQISWFVDGKQMQTAKTQPREEQFNGTYRVVSVLPIGHQDWLKGKQFTCKVNNKALPSPIERTISKARGQAHQPSVYVLPPSREELSKNTVSLTCLIKDFFPPDIDVEWQSNGQQEPESKYRTTPPQLDEDGSYFLYSKLSVDKSRWQRGDTFICAVMHEALHNHYTQESLSHSPG", "notes": "homodimer; also called 218d"}, "B14": {"name": "insulin-Fc fusion protein of SEQ ID NO: 94 (Fc fusion)", "chain": "B13 chain with H25F"}}, "note": "Changes are numbered by the printed parent chain. These are yes or no findings as the source states them, for the method shown. Some entries that bind do so weakly or less than the wild type. Sequences can lack the tags named with a protein.", "data": [{"molecular_target": "T1, human insulin receptor (human, UniProt P06213 28-1382)", "T1 construct": "whole, on cells; Endogenous receptor on IM-9 cells; also called IR", "assay": "competition with biotinylated RHI on IM-9 cells, flow cytometry, 4 C", "values": [{"binder": "B1", "binding": "binds"}, {"binder": "B2", "binding": "binds"}, {"binder": "B3", "binding": "binds"}, {"binder": "B4", "binding": "binds"}, {"binder": "B5", "binding": "binds"}, {"binder": "B6", "binding": "binds"}, {"binder": "B7", "binding": "binds"}, {"binder": "B8", "binding": "binds"}, {"binder": "B9", "binding": "binds"}, {"binder": "B10", "binding": "binds"}, {"binder": "B11", "binding": "binds"}, {"binder": "B12", "binding": "binds"}, {"binder": "B13", "binding": "binds"}, {"binder": "B14", "binding": "binds"}]}]}
